Source: the supplement of paper PMC7661543
The effect of the compound repeats well; differences between the knockouts mostly do not.

System: SKBR3
Test: relative cell number vs DMSO control (72 h) (% of DMSO); higher = less growth inhibition (more cells)
Experimental: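 QMAP-Seq: a pool of 5 breast cancer cell lines (ZR-75-1, SKBR3, HCC-38, MDA-MB-231, BT-20), each carrying 12 doxycycline-inducible Cas9 sgRNA perturbations (11 knockouts plus non-targeting sgNT), was treated with compounds for 72 h at four 10-fold doses (10 nM-10 uM or 1 nM-1 uM range). Barcodes were amplified and sequenced, and cell number was interpolated from 293T spike-in standard curves. The result is expressed as % of the median of DMSO wells. Two biological replicates.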

N#Cc1ccc(COC[C@H]2O[C@@H](n3c(NCc4ccc(Cl)c(Cl)c4)nc4c(N)ncnc43)[C@H](O)[C@@H]2O)cc1
Settings	relative cell number
sgRNA knockout: sgATF3, 10 nM	110
sgRNA knockout: sgATF3, 100 nM	109
sgRNA knockout: sgATF3, 1000 nM	104
sgRNA knockout: sgATF3, 10000 nM	57.4
sgRNA knockout: sgATF4, 10 nM	89
sgRNA knockout: sgATF4, 100 nM	103
sgRNA knockout: sgATF4, 1000 nM	105
sgRNA knockout: sgATF4, 10000 nM	37.2
sgRNA knockout: sgATF6, 10 nM	99.9
sgRNA knockout: sgATF6, 100 nM	92.9
sgRNA knockout: sgATF6, 1000 nM	86.9
sgRNA knockout: sgATF6, 10000 nM	45
sgRNA knockout: sgATG7, 10 nM	118
sgRNA knockout: sgATG7, 100 nM	97.4
sgRNA knockout: sgATG7, 1000 nM	104
sgRNA knockout: sgATG7, 10000 nM	53
sgRNA knockout: sgERN1, 10 nM	99.9
sgRNA knockout: sgERN1, 100 nM	103
sgRNA knockout: sgERN1, 1000 nM	103
sgRNA knockout: sgERN1, 10000 nM	48.91
sgRNA knockout: sgHSF1, 10 nM	95.9
sgRNA knockout: sgHSF1, 100 nM	103
sgRNA knockout: sgHSF1, 1000 nM	121
sgRNA knockout: sgHSF1, 10000 nM	43.9
sgRNA knockout: sgHSF2, 10 nM	96
sgRNA knockout: sgHSF2, 100 nM	109
sgRNA knockout: sgHSF2, 1000 nM	97.2
sgRNA knockout: sgHSF2, 10000 nM	45
sgRNA knockout: sgKEAP1, 10 nM	89.8
sgRNA knockout: sgKEAP1, 100 nM	111
sgRNA knockout: sgKEAP1, 1000 nM	103
sgRNA knockout: sgKEAP1, 10000 nM	47.6
sgRNA knockout: sgNFE2L2, 10 nM	105
sgRNA knockout: sgNFE2L2, 100 nM	113
sgRNA knockout: sgNFE2L2, 1000 nM	105
sgRNA knockout: sgNFE2L2, 10000 nM	40.9
sgRNA knockout: sgSLC35F2, 10 nM	99.59
sgRNA knockout: sgSLC35F2, 100 nM	96.8
sgRNA knockout: sgSLC35F2, 1000 nM	96.7
sgRNA knockout: sgSLC35F2, 10000 nM	50.4
sgRNA knockout: sgXBP1, 10 nM	107
sgRNA knockout: sgXBP1, 100 nM	117
sgRNA knockout: sgXBP1, 1000 nM	84.5
sgRNA knockout: sgXBP1, 10000 nM	40.2

O=C(NOCC(O)CO)c1cc(Br)c(F)c(F)c1Nc1ccc(I)cc1F (configuration not stated)
Settings	relative cell number
sgRNA knockout: sgATF3, 10 nM	122
sgRNA knockout: sgATF3, 100 nM	117
sgRNA knockout: sgATF3, 1000 nM	91.3
sgRNA knockout: sgATF3, 10000 nM	110
sgRNA knockout: sgATF4, 10 nM	108
sgRNA knockout: sgATF4, 100 nM	90.9
sgRNA knockout: sgATF4, 1000 nM	82.6
sgRNA knockout: sgATF4, 10000 nM	89.7
sgRNA knockout: sgATF6, 10 nM	98.8
sgRNA knockout: sgATF6, 100 nM	71.1
sgRNA knockout: sgATF6, 1000 nM	92.7
sgRNA knockout: sgATF6, 10000 nM	88.8
sgRNA knockout: sgATG7, 10 nM	109
sgRNA knockout: sgATG7, 100 nM	92.7
sgRNA knockout: sgATG7, 1000 nM	80.8
sgRNA knockout: sgATG7, 10000 nM	81.1
sgRNA knockout: sgERN1, 10 nM	103
sgRNA knockout: sgERN1, 100 nM	104
sgRNA knockout: sgERN1, 1000 nM	96.7
sgRNA knockout: sgERN1, 10000 nM	84.3
sgRNA knockout: sgHSF1, 10 nM	101
sgRNA knockout: sgHSF1, 100 nM	76.5
sgRNA knockout: sgHSF1, 1000 nM	87.8
sgRNA knockout: sgHSF1, 10000 nM	75.8
sgRNA knockout: sgHSF2, 10 nM	121
sgRNA knockout: sgHSF2, 100 nM	108
sgRNA knockout: sgHSF2, 1000 nM	86.21
sgRNA knockout: sgHSF2, 10000 nM	81.6
sgRNA knockout: sgKEAP1, 10 nM	89.7
sgRNA knockout: sgKEAP1, 100 nM	76.1
sgRNA knockout: sgKEAP1, 1000 nM	87
sgRNA knockout: sgKEAP1, 10000 nM	77.5
sgRNA knockout: sgNFE2L2, 10 nM	107.1
sgRNA knockout: sgNFE2L2, 100 nM	93.6
sgRNA knockout: sgNFE2L2, 1000 nM	77.8
sgRNA knockout: sgNFE2L2, 10000 nM	96.25
sgRNA knockout: sgSLC35F2, 10 nM	93.4
sgRNA knockout: sgSLC35F2, 100 nM	91.3
sgRNA knockout: sgSLC35F2, 1000 nM	66.5
sgRNA knockout: sgSLC35F2, 10000 nM	74.8
sgRNA knockout: sgXBP1, 10 nM	109
sgRNA knockout: sgXBP1, 100 nM	104
sgRNA knockout: sgXBP1, 1000 nM	91.4
sgRNA knockout: sgXBP1, 10000 nM	105

O=c1[nH]cc(F)c(=O)[nH]1 [5-Fluorouracil]
Settings	relative cell number
sgRNA knockout: sgATF3, 10 nM	109
sgRNA knockout: sgATF3, 100 nM	99
sgRNA knockout: sgATF3, 1000 nM	72.2
sgRNA knockout: sgATF3, 10000 nM	33.3
sgRNA knockout: sgATF4, 10 nM	96.3
sgRNA knockout: sgATF4, 100 nM	106
sgRNA knockout: sgATF4, 1000 nM	73
sgRNA knockout: sgATF4, 10000 nM	27.9
sgRNA knockout: sgATF6, 10 nM	102
sgRNA knockout: sgATF6, 100 nM	96.6
sgRNA knockout: sgATF6, 1000 nM	66
sgRNA knockout: sgATF6, 10000 nM	26
sgRNA knockout: sgATG7, 10 nM	115
sgRNA knockout: sgATG7, 100 nM	103
sgRNA knockout: sgATG7, 1000 nM	62.6
sgRNA knockout: sgATG7, 10000 nM	27.42
sgRNA knockout: sgERN1, 10 nM	87.31
sgRNA knockout: sgERN1, 100 nM	125
sgRNA knockout: sgERN1, 1000 nM	73.5
sgRNA knockout: sgERN1, 10000 nM	25.4
sgRNA knockout: sgHSF1, 10 nM	84.7
sgRNA knockout: sgHSF1, 100 nM	91.9
sgRNA knockout: sgHSF1, 1000 nM	78.4
sgRNA knockout: sgHSF1, 10000 nM	30.1
sgRNA knockout: sgHSF2, 10 nM	87.8
sgRNA knockout: sgHSF2, 100 nM	118
sgRNA knockout: sgHSF2, 1000 nM	71.1
sgRNA knockout: sgHSF2, 10000 nM	26.7
sgRNA knockout: sgKEAP1, 10 nM	90.2
sgRNA knockout: sgKEAP1, 100 nM	99.3
sgRNA knockout: sgKEAP1, 1000 nM	56.7
sgRNA knockout: sgKEAP1, 10000 nM	22.6
sgRNA knockout: sgNFE2L2, 10 nM	96.15
sgRNA knockout: sgNFE2L2, 100 nM	116
sgRNA knockout: sgNFE2L2, 1000 nM	72.7
sgRNA knockout: sgNFE2L2, 10000 nM	33
sgRNA knockout: sgSLC35F2, 10 nM	93.6
sgRNA knockout: sgSLC35F2, 100 nM	91.2
sgRNA knockout: sgSLC35F2, 1000 nM	72.9
sgRNA knockout: sgSLC35F2, 10000 nM	24
sgRNA knockout: sgXBP1, 10 nM	92.7
sgRNA knockout: sgXBP1, 100 nM	86.7
sgRNA knockout: sgXBP1, 1000 nM	62.37
sgRNA knockout: sgXBP1, 10000 nM	25
